Data taken from doi:10.1101/2020.03.02.974303.
These are yes or no findings as the source states them, for the method shown. Binding seen in cells or lysates may run through a third protein. Some binding calls cover weakened binding; strength is not graded here.

By UniProt entry, the sequences of proteins in these tests, tags left out. Where a name states a change or a piece, a line headed by the entry shows the natural chain unless it says otherwise.
UniProt Q969H0, whole entry, looked up, stated change not applied: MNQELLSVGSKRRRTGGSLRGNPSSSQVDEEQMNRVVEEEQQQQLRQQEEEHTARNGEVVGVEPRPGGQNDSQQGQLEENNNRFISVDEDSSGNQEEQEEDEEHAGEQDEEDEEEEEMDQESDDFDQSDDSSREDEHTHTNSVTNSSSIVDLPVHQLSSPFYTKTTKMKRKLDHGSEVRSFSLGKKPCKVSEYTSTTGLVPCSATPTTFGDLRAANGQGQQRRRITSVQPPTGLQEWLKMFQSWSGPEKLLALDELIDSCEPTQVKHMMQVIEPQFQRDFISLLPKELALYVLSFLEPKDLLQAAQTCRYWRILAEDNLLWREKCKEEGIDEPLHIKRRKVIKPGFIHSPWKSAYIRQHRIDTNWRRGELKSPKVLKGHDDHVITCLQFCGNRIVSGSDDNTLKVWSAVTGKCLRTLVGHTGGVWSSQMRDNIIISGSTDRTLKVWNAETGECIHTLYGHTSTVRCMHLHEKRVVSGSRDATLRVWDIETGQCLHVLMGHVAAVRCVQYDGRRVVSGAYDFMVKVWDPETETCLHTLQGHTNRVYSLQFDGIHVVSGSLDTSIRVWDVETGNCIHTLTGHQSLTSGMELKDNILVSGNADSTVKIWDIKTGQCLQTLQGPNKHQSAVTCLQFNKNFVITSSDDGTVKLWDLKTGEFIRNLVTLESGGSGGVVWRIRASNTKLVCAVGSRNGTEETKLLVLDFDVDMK
UniProt P01106, whole entry: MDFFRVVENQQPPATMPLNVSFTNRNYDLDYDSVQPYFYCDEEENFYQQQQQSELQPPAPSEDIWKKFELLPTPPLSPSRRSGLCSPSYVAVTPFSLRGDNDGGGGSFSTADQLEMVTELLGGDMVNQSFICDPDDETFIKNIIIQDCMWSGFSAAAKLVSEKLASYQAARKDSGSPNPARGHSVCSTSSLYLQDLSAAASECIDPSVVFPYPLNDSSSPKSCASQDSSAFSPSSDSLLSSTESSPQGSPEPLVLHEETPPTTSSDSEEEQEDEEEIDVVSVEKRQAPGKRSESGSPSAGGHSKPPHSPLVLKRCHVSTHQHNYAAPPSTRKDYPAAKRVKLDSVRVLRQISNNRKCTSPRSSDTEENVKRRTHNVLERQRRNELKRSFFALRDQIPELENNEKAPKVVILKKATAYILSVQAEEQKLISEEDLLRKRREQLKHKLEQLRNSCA

Target: HA-FBW7ΔDF(d231-324) (UniProt Q969H0)
Assay: proximity ligation

c-Myc (from UniProt P01106 1-454)
binding: binds
